This is an account of results in article PMC9282853.

Amino acid sequences for entries named in this document (tags omitted). A change or cut given only in a name is not applied to a line headed by its entry.
UniProt Q8K070: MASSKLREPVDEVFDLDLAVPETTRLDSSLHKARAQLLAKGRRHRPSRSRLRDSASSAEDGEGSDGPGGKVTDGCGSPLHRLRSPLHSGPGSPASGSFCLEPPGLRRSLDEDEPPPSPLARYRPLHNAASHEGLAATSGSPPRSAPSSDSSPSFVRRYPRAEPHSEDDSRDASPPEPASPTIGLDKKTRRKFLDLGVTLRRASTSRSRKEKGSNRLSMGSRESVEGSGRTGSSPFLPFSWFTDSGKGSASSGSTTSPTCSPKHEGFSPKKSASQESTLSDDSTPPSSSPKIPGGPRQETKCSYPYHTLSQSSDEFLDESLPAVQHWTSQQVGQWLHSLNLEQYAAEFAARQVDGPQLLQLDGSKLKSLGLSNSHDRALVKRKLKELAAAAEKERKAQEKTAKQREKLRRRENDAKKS

In the assay the target is HA-tagged Samd14 lacking the SAM domain (mouse) (UniProt Q8K070). Kind of assay: co-IP; anti-HA agarose beads on lysates (1% NP-40 lysis buffer) of GFP-sorted G1E-ΔEnh cells expressing HA-tagged Samd14 constructs or empty vector; Western blot for Capzβ, Capzα1, Capzα2. (In general: In western blotting, separated proteins are transferred to a membrane and probed.)

These are yes or no findings as the source states them, for the method shown. Binding seen in cells or lysates may run through a third protein. Binding calls can cover weak binding; strength is not graded here.

Regarding “Capzα2 (F-actin capping protein α2 subunit), endogenous in G1E cells (from UniProt P47754 1-286)”, the binding entry was “binds”.
The value for “Capzβ (F-actin capping protein β subunit), endogenous in G1E cells (from UniProt P47757 1-277)” was “binds”.
